This is one part of the list.
test system: T1, CTL2-GFP (C. trachomatis L2/434/Bu, GFP-expressing); parameters: species or system HeLa; Intracellular C. trachomatis growth in HeLa cells, bulk GFP fluorescence relative to DMSO; details: bulk GFP, single well; 28.5 h, 10 µM; inhibitor
T1 construct: L2/434/Bu, GFP-expressing

SMILES | % of control remaining [%]
CCOc1ccc(CC(=O)Nc2ncccc2OCCCC#N)cc1 [CBK304062] | 123.166
O=C(O)CCC(=O)NCC1OCCc2ccccc21 (stereo not drawn) [CBK265865] | 130.094
Cc1nnc2n1-c1ccc(Cl)cc1C(c1ccccc1)=NN2CCCC(=O)c1ccc(F)cc1 [CBK016076] | 146.39
CCc1nc2ccc(C(=O)NC3=NN(c4ccccc4)C(=O)C3)cn2c1N(C)C(=O)COc1ccccc1 [CBK145873] | 108.579
Cc1ccc(CN(C)C(C)C(=O)NCc2cccs2)cc1 (stereo not drawn) [CBK295663] | 136.064
Cc1nccc(C(=O)N2CCC3(C/C=C/C[C@H]4COCC[C@H]4NC(=O)CNC3=O)CC2)n1 [CBK292072] | 144.769
COc1ccnc(Cn2ncc(N3CCCC3)cc2=O)c1OC [CBK306672] | 122.866
CCOc1ccc(S(=O)(=O)N2CCCN(Cc3cccc(C(F)(F)F)c3)CC2)c2cccnc12 [CBK062760] | 103.081
O=C(O)COc1ccc(/C=C/c2nc3n(n2)C=COc2ccccc2-3)cc1 [CBK286650] | 113.201
COc1ccccc1-c1nccnc1N1CCN(c2ccncc2)CC1 [CBK037081] | 122.676
O=C(O)CSc1nnc2ccc(C(F)(F)F)cn12 [CBK018930] | 155.842
CCc1cc(CNC(=O)C(c2ccc(Cl)cc2)N(C)C)on1 (stereo not drawn) [CBK281670] | 107.311
CC1=NN(C(=O)NS(=O)(=O)c2ccccc2Cl)C(C)(C)C1 [CBK018947] | 107.691
O=C(O)C1C2C=CC(O2)C1C(=O)NCCCc1ccccc1 (stereo not drawn) [CBK286982] | 124.325
CC(=O)Nc1ccc(NC(=O)CSC2=C(C#N)C(c3ccco3)C3=C(CCCC3=O)N2)cc1 (stereo not drawn) [CBK264462] | 118.303
O=C(O)CNS(=O)(=O)c1cccc2nsnc12 [CBK261136] | 100
CN(C)CCNC(=O)c1cccc(-c2cncc(NCc3ccc4c(c3)OCO4)n2)c1 [CBK065361] | 105.419
O=C(c1ccncc1)N1Cc2ccccc2C1 [CBK200316] | 141.334
CN(Cc1ccccc1)C(=O)c1cc(=O)[nH]c2ccccc12 [CBK287971] | 142.919
Cc1ccc(CNC(=O)CN(c2cccc(C(F)(F)F)c2)S(=O)(=O)c2ccc(C)cc2)cc1 [CBK263997] | 128.161
OC(CNCc1ccc2c(c1)OCO2)CSc1ccccc1 (stereo not drawn) [CBK074684] | 87.8276
CC(C)(C)c1csc(NC(=O)C2CCCCC2)n1 [CBK058720] | 100.317
O=C(Nc1ccc(F)cc1)OCC1COc2ccccc2C1 (stereo not drawn) [CBK017146] | 85.5632
CS(=O)(=O)N1CC2(CCN(Cc3ccc([N+](=O)[O-])cc3)CC2)c2ccccc21 [CBK084010] | 98.8361
c1csc(Sc2nccnc2N2CCCC2)n1 [CBK093805] | 120.44
Nc1c(C(=O)NCc2ccco2)c2nc3ccccc3nc2n1C1CCCC1 [CBK269323] | 55.0122

Structural class, the compounds so far with an aryl methoxy group
SMILES | % of control remaining [%]
COc1ccnc(Cn2ncc(N3CCCC3)cc2=O)c1OC [CBK306672] | 122.866
COc1ccccc1-c1nccnc1N1CCN(c2ccncc2)CC1 [CBK037081] | 122.676

(further entries)

SMILES | % of control remaining [%]
CC(C)NC(=O)CC[C@@H]1CNC(=O)[C@@H]2C[C@H](NC(=O)c3ccccc3)CN12 [CBK289002] | 127.747
COc1ccc(OCc2nc(C)cc(=O)n2CC(=O)NC(C)C)cc1 [CBK300525] | 105.126
OCCN(CCO)Cc1ccc(Cl)c(Cl)c1 [CBK261919] | 100
COc1ccc2nc(Nc3nc4ccc(S(C)(=O)=O)cc4s3)sc2c1 [CBK287484] | 154.499
CCc1nccn1CCC(=O)N1CC(OCc2ccccc2F)C1 [CBK306597] | 121.823
Cc1ccc(CS(=O)(=O)NCc2ccccc2-n2ccnc2)cc1 [CBK281462] | 117.089
N#CC1=C(N)Oc2[nH]nc(-c3ccccc3)c2C12C(=O)N(Cc1ccccc1)c1ccccc12 (stereo not drawn) [CBK267787] | 100.777
COc1cccc2c1OCC[C@@H]2Oc1cncc(N2CCNCC2)n1 [CBK172305G] | 108.335
CC(NC(=O)CSc1ncc(-c2ccccc2)nn1)c1ccccc1 (stereo not drawn) [CBK267514] | 142.155
N#CCCCN1CCC(Oc2cncc(OCc3cccnc3)n2)C1 (stereo not drawn) [CBK084466] | 106.315
COCOc1ccc(-c2ncc(OCc3ccc4c(c3)OCO4)nc2N)cc1 [CBK145101] | 88.2506
Nc1cc(S(=O)(=O)Nc2ccc(C(F)(F)F)cc2)ccc1N1CCCNCC1 [CBK001518C] | 115.561
CC(NCC(O)COCc1ccc(Cl)cc1)c1ccccc1 (stereo not drawn) [CBK027972C] | 128.662
CN1CCC(N2CCN(C(=O)c3ccccc3Nc3cccc(C(F)(F)F)c3)CC2)CC1 [CBK149097] | 131.168
CCC(=O)Oc1ccc(C(=O)N2CCN(c3ccccc3F)CC2)cc1 [CBK307538] | 129.274
CN(C)CCNC(=O)NC(c1ccccc1)c1ccccc1 [CBK263505C] | 109.204
COc1cc(-c2nc3ncccc3cc2NS(C)(=O)=O)cc(OC)c1OC [CBK085697] | 101.755
O=C(O)c1cc(NC(=O)c2ccc(NC(=O)c3ccco3)cc2)cc(C(=O)O)c1 [CBK265149] | 114.444
CC(C)Nc1nc2ccccc2nc1OCc1ccc(C2CC2C(=O)N(C)C)cc1 (stereo not drawn) [CBK166091] | 76.2381
COc1ccc(C(=O)N2CCN(c3cnn(C)c(=O)c3Cl)CC2)cc1 [CBK305720] | 113.828
CC(=O)N1C[C@H]2CCCN(S(=O)(=O)c3ccc4c(c3)CCC4)[C@H]2C1 [CBK282254] | 140.485
COc1cc(OC)cc(C(=O)N2CCC3(CC2)NC(=O)c2ccc(OC)cc2O3)c1 [CBK166328] | 172.504
Cc1nc(C(F)(F)F)ccc1C(=O)N1CCCC1c1ccc[nH]1 (stereo not drawn) [CBK306328] | 63.5609
Cc1ccc2c(CC(=O)NCCn3cncn3)coc2c1 [CBK283240] | 113.351
NNC(=O)CSc1nnc(-c2ccc(Cl)cc2)n1-c1ccccc1 [CBK263010] | 152.177
CN(C)c1ccc(C(=O)N2CC(=O)Nc3ccccc32)cc1 [CBK017839] | 98.4075

Some of the entries above in a different format:

| SMILES | % of control remaining [%] |
| --- | --- |
| CCc1cc(CNC(=O)C(c2ccc(Cl)cc2)N(C)C)on1 (stereo not drawn) [CBK281670] | 107.311 |
| O=C(c1ccncc1)N1Cc2ccccc2C1 [CBK200316] | 141.334 |

(continued)

SMILES | % of control remaining [%]
CCOC(=O)C1CCN(S(=O)(=O)c2cccc3cccnc23)CC1 [CBK051242] | 98.9677
O=C(CCS(=O)(=O)c1ccccc1)Nc1cccnc1N1CCNCC1 [CBK028262T] | 113.811
Cc1cc(C)nc(Nc2ccc(C3CCCN(S(=O)(=O)c4ccc(F)cc4)C3)nc2)n1 (stereo not drawn) [CBK285987] | 102.275
Fc1ccc(Sc2cccc(C(F)(F)F)n2)cc1 [CBK115240] | 90.5425
COc1ccc(-c2cc(C(=O)NCCc3ccncc3)cnc2-c2ccc(F)cc2)cc1 [CBK037434] | 125.711
COC(=O)C1CCCCN1S(=O)(=O)c1cccs1 (stereo not drawn) [CBK051135] | 146.032
CC(C)(C)C(=O)N1CCC2(CC1)Nc1cccnc1-n1cccc12 [CBK284507] | 94.6484
c1ccc(CCNc2nccnc2-c2cccs2)nc1 [CBK036776] | 176.139
O=C(CN1CCCN(c2ncc(C(F)(F)F)cc2Cl)CC1)Nc1c(F)cccc1F [CBK074636] | 124.435
CN1C(=O)C2(CC(=O)N(CCC3CCCCC3)C2=O)c2ccccc21 (stereo not drawn) [CBK075461] | 99.7877
CC(c1ccc(F)c(F)c1)N(C)C(=O)Cn1cnc2c(c1=O)CCC2 (stereo not drawn) [CBK306291] | 104.085
Cc1ccc2nc3c(cc(C(=O)NC4CCCC4)c(=N)n3Cc3ccco3)c(=O)n2c1 [CBK265242] | 122.648
CN1CCC(N2CCN(C(=O)c3ccc4c(c3)no[n+]4[O-])CC2)CC1 [CBK149095] | 135.217
O=c1[nH]nc(SCc2csc(COc3ccc(Cl)cc3)n2)n1C1CC1 [CBK295146] | 99.6143
C=C(C)Cn1c(SC(C)C)nnc1-c1ccccc1OC(F)(F)F [CBK200081] | 96.76
COC(=O)/C=C/c1cn(C2OC(CO)C(O)C2O)c(=O)[nH]c1=O (stereo not drawn) [CBK201339] | 111.492
CN1CCN(NC(=O)COc2ccc(Br)cc2Cl)CC1 [CBK268174] | 113.873
COc1ccc2c(c1)C1(CC(=O)N(CCOc3ccccc3)C1=O)C(=O)N2C (stereo not drawn) [CBK075168] | 103.788
O=C(c1cc(-c2ccncc2)nc2ccc(Cl)cc12)N1CCN(Cc2ccc3c(c2)OCO3)CC1 [CBK267765] | 130.194
CCOc1ccc2ccccc2c1CNCCSc1nnnn1C [CBK270046C] | 150.862
CN1C(C)(C)CC(NC(=O)c2[nH]cnc2C(=O)O)CC1(C)C [CBK287102] | 92.0964
O=C(Cn1ccnc1)Nc1nc(-c2ccccc2F)cs1 [CBK281409] | 73.3584
O=C1COc2ccccc2C/C=C/CC2(CCN(C(=O)c3cnccn3)CC2)C(=O)NCCN1 [CBK291997] | 172.935
CC(=O)Nc1ccc(NCc2cc(Cl)ccc2OCc2ccc(Cl)cc2Cl)cc1 [CBK078179] | 87.8795
Cc1ccc(C(=O)NC(C)c2nnc(SCC(=O)c3ccc(Br)cc3)n2C)cc1 (stereo not drawn) [CBK266183] | 139.101
O=C(Cc1c[nH]cn1)N1CCCC2(CCN(C(=O)c3cc(F)c(F)cc3F)C2)C1 (stereo not drawn) [CBK137072] | 95.1961

Random excerpt: 2 records from the list
SMILES | % of control remaining [%]
CN1CCN(NC(=O)COc2ccc(Br)cc2Cl)CC1 [CBK268174] | 113.873
O=c1[nH]nc(SCc2csc(COc3ccc(Cl)cc3)n2)n1C1CC1 [CBK295146] | 99.6143
